According to the supplement of paper PMC10849652:
This is one part of the list.

Chains of the proteins cited; added tags and fusions are not shown. Lines headed by an entry give the natural chain unless they say otherwise; changes in a name come on top.
UniProt P51659: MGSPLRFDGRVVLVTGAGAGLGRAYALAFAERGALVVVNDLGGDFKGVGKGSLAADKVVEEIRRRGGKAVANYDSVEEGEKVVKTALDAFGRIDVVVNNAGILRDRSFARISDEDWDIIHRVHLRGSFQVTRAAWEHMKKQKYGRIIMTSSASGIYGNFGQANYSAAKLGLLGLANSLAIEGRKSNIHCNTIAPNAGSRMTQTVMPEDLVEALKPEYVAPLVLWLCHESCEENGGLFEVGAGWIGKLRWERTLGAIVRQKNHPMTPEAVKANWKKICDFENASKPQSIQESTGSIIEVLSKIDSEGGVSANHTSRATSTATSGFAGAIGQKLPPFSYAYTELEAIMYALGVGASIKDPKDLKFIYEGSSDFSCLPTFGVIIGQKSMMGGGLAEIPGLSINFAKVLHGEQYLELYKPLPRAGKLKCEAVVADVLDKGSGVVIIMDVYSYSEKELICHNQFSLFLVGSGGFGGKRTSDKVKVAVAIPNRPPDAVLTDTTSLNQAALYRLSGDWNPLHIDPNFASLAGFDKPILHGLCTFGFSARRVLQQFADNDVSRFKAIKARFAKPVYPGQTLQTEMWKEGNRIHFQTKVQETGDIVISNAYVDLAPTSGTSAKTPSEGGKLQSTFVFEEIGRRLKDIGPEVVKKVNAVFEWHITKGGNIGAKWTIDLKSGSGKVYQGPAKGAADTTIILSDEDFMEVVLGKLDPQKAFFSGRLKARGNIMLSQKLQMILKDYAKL
UniProt Q9NSE4: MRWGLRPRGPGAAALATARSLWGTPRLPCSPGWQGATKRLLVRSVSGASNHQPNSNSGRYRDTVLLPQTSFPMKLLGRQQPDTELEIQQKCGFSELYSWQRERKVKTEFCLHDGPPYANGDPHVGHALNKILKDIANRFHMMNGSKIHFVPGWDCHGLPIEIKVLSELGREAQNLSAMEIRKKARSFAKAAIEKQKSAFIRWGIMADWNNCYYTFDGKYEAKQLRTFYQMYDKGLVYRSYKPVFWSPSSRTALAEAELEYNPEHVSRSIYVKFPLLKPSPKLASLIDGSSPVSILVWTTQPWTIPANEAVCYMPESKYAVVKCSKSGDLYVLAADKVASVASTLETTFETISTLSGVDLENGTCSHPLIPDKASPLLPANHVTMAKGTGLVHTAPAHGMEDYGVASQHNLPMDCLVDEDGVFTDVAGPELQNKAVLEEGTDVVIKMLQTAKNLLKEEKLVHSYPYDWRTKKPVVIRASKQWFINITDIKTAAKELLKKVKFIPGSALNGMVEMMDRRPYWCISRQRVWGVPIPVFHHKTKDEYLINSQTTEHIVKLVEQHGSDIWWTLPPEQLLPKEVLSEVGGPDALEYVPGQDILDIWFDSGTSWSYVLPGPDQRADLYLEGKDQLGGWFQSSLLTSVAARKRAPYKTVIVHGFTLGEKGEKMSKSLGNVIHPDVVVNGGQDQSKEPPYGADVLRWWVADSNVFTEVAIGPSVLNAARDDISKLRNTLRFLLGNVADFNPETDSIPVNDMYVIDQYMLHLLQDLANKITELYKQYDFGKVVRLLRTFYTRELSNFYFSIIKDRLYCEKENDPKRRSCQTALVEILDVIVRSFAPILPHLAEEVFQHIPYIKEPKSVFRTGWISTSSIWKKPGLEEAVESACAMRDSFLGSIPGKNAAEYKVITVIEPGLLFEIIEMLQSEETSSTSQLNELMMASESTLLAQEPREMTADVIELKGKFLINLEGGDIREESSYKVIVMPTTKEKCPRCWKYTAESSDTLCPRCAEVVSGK
UniProt O60921: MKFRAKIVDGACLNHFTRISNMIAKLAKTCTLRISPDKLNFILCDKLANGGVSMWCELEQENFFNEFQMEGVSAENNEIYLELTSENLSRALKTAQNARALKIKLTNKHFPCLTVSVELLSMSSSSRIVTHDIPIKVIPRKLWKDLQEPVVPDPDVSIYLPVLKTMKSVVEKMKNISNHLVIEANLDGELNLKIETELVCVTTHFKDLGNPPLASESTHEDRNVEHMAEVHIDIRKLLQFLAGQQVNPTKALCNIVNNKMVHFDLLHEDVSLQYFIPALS
UniProt Q6NVY1: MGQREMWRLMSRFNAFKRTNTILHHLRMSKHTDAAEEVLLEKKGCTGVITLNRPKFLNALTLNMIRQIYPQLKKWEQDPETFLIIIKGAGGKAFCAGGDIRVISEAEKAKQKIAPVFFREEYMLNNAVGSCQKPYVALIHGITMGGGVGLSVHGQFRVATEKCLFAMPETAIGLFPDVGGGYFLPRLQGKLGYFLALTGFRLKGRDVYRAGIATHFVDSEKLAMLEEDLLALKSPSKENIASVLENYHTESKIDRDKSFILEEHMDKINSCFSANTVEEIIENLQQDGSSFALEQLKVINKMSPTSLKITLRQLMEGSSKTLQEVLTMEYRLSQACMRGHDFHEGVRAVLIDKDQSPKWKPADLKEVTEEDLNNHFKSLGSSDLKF
UniProt P11021: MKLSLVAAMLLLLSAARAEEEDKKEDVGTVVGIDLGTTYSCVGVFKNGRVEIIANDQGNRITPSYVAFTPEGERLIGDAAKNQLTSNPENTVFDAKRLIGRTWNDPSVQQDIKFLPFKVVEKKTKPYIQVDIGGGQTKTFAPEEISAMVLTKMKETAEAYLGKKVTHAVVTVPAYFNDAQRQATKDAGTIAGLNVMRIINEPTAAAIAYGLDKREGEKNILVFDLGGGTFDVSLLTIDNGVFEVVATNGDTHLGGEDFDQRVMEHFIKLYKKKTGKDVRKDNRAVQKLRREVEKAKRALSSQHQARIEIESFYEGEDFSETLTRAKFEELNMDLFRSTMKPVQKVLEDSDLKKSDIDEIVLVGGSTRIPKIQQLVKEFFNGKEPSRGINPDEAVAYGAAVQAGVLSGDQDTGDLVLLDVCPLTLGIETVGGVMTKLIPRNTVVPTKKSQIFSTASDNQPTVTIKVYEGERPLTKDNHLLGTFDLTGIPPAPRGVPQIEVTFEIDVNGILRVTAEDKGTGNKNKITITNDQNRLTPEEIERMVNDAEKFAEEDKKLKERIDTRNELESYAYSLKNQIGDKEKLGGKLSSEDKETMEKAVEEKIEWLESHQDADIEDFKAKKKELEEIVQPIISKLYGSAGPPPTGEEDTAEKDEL
UniProt O43719: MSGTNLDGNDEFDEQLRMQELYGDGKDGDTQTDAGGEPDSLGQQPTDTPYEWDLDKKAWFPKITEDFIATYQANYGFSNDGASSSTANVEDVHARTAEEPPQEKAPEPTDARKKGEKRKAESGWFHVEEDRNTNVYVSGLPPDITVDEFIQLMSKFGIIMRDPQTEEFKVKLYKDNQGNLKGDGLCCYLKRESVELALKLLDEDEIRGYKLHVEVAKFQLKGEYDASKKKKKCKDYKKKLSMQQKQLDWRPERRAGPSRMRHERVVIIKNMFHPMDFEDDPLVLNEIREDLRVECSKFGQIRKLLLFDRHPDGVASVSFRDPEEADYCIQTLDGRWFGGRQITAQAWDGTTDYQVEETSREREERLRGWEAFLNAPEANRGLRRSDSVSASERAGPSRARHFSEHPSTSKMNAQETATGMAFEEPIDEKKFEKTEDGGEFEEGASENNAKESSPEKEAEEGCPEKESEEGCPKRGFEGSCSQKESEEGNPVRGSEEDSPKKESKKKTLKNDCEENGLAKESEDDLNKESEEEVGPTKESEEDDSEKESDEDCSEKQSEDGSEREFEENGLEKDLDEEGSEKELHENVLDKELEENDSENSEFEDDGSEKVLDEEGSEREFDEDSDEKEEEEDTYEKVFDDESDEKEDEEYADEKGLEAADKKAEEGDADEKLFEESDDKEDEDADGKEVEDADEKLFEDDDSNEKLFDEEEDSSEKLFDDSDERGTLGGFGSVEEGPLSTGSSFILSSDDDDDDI
UniProt P41252: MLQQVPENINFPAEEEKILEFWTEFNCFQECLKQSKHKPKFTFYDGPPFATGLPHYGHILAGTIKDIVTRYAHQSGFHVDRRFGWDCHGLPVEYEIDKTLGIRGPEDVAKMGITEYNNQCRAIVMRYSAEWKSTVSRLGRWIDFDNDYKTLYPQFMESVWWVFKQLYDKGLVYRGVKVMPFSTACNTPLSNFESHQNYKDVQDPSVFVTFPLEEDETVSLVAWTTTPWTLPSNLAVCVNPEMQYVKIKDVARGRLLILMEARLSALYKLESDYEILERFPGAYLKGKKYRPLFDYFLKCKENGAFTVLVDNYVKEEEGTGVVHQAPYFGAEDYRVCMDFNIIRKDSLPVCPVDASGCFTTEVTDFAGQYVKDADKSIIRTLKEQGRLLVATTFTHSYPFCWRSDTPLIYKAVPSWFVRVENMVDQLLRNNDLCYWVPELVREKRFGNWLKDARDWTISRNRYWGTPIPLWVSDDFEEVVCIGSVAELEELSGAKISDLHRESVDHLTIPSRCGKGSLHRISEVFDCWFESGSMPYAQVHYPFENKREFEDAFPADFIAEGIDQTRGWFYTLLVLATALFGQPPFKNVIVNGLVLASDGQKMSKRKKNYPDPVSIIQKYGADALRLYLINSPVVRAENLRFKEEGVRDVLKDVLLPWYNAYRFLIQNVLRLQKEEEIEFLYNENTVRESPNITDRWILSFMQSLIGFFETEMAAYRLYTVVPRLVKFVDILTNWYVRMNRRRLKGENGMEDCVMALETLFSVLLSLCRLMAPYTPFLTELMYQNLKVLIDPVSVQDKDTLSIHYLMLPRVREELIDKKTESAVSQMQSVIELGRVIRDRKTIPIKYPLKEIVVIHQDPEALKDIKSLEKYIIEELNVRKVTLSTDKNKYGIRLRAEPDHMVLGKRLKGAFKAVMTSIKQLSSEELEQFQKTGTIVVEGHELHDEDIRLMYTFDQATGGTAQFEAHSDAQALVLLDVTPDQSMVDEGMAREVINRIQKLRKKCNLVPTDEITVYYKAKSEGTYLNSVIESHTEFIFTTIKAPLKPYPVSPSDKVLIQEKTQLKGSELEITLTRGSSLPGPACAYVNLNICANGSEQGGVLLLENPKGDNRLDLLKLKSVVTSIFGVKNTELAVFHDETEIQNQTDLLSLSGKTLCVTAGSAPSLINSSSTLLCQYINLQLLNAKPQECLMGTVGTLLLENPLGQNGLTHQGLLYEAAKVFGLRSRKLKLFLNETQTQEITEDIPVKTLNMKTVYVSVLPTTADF
UniProt P17096: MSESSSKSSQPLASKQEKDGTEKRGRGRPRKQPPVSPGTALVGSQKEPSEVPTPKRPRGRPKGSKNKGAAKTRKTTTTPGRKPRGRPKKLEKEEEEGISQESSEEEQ
UniProt O75330: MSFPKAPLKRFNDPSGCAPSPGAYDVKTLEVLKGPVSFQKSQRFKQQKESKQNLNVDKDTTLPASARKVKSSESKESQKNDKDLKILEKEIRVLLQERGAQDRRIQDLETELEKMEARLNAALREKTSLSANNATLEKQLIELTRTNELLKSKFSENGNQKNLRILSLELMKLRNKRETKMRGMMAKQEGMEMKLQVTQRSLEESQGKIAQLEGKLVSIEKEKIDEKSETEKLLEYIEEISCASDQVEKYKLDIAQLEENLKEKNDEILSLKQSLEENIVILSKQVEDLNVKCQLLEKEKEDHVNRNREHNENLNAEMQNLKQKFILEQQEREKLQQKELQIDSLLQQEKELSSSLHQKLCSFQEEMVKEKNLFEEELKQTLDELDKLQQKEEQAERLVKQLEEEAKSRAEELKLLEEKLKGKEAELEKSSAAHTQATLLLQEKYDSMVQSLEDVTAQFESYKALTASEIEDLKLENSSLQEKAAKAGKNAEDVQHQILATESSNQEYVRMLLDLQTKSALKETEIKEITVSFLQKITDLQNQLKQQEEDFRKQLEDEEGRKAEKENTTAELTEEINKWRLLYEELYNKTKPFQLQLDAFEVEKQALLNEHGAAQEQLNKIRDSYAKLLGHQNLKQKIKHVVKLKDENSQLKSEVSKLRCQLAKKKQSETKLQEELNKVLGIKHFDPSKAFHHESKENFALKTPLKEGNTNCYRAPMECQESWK
UniProt P49773: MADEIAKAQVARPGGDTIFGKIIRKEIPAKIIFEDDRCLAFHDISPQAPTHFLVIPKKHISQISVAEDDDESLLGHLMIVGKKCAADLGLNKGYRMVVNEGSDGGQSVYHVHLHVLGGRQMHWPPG
UniProt P51991: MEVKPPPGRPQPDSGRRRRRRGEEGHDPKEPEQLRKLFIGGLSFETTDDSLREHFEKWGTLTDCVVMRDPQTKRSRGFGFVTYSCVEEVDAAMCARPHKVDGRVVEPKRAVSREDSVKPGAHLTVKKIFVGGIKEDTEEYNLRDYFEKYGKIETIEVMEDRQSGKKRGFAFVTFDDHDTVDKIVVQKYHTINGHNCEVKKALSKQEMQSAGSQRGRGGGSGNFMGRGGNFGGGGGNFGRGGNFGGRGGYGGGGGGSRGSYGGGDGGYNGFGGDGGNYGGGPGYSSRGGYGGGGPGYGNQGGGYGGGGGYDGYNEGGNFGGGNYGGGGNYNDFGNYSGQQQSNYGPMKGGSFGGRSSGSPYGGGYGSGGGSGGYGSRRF

Tests used:
Assay in all cases: log2 fold change, soluble protein after heating vs DMSO (PISA); higher = thermal stabilisation; K562 cells, 10 uM, 30 min; active = over 0.2 and 3.5 SD of the protein, either way, in both replicates (recomputed)
[1] = compound: CC[C@@H]1C(=O)N(C)c2cnc(Nc3ccc(C(=O)NC4CCN(C)CC4)cc3OC)nc2N1C1CCCC1
In short: (§1)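 Soluble protein was quantified by TMTpro 16plex LC-MS/MS after channel sums were equalised. It was obtained as the supernatant after 21,000xg for 90 min from pooled aliquots of K562 cells (2×10^6 cells/mL, 10 μM compound, 30 min) heated for 3 min across 48°C-58°C and extracted in PBS with 0.5% NP-40 at 4°C. Thermal stability values are relative to control samples and come from duplicates. They are given as log2 fold changes.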

volasertib = compound: CC[C@@H]1C(=O)N(C)c2cnc(Nc3ccc(C(=O)N[C@H]4CC[C@H](N5CCN(CC6CC6)CC5)CC4)cc3OC)nc2N1C(C)C [volasertib]
In short: as §1

[2] = compound: CC[C@H](C)N1C=C(C2=C(C=C(C=C21)C3=CN=C(C=C3)N4CCNCC4)C(=O)NCC5=C(C=C(NC5=O)C)C)C
In short: as §1

epoxomicin = compound: CC[C@H](C)[C@@H](C(=O)N[C@@H]([C@@H](C)O)C(=O)N[C@@H](CC(C)C)C(=O)[C@]1(CO1)C)NC(=O)[C@H]([C@@H](C)CC)N(C)C(=O)C [epoxomicin]
In short: as §1

[3] = compound: CCn1c(C(=O)N(C2CC2)C2CC2)cc2c3c(ncn3C)c(Nc3cc(C)n(C)n3)nc21
In short: as §1

[4] = compound: CCn1cc(-c2ccnc3[nH]c(-c4cccc(CN(C)C)c4)cc23)c(-c2ccc(NC(=O)N(C)C)cc2)n1
In short: as §1

[5] = compound: CN(C)CC(=O)Nc1ccc2[nH]c(=O)c3ccccc3c2c1
In short: as §1

rosiglitazone = compound: CN(CCOC1=CC=C(C=C1)C[C@H]2C(=O)NC(=O)S2)C3=CC=CC=N3 (racemic) [rosiglitazone]
In short: as §1

[6] = compound: CN1C2=C(C3=C1C(=O)N(N=C3)CC4=CC(=CC=C4)N)SC(=C2)S(=O)C
In short: as §1

[7] = compound: CN1CCC(CNc2ccc3ncc(-c4cccc(OC(F)(F)F)c4)n3n2)CC1
In short: as §1

saracatinib = compound: CN1CCN(CCOc2cc(OC3CCOCC3)c3c(Nc4c(Cl)ccc5c4OCO5)ncnc3c2)CC1 [saracatinib]
In short: as §1

sotrastaurin = compound: CN1CCN(c2nc(C3=C(c4c[nH]c5ccccc45)C(=O)NC3=O)c3ccccc3n2)CC1 [sotrastaurin]
In short: as §1

alvocidib = compound: CN1CC[C@H](c2c(O)cc(O)c3c(=O)cc(-c4ccccc4Cl)oc23)[C@H](O)C1 [alvocidib]
In short: as §1

Tubastatin A = compound: CN1CCc2c(c3ccccc3n2Cc2ccc(C(=O)NO)cc2)C1 [Tubastatin A]
In short: as §1

[8] = compound: CNC(=O)C1=CC=CC=C1NC2=NC(=NC=C2Cl)NC3=C(C=C(C=C3)N4CCOCC4)OC
In short: as §1

defactinib = compound: CNC(=O)c1ccc(Nc2ncc(C(F)(F)F)c(NCc3nccnc3N(C)S(C)(=O)=O)n2)cc1 [defactinib]
In short: as §1

rucaparib = compound: CNCc1ccc(-c2[nH]c3cc(F)cc4c3c2CCNC4=O)cc1 [rucaparib]
In short: as §1

[9] = compound: CNc1nc(-c2ccc3c(N)n[nH]c3c2)cc(N2C[C@@H](C(=O)NC3CCCCC3)CC[C@H]2C)n1
In short: as §1

encorafenib = compound: COC(=O)N[C@@H](C)CNc1nccc(-c2cn(C(C)C)nc2-c2cc(Cl)cc(NS(C)(=O)=O)c2F)n1 [encorafenib]
In short: as §1

[10] = compound: COC(=O)[C@H](CCSC)NC(=O)C1=C(C=C(C=C1)NC[C@H](CS)N)C2=CC=CC=C2
In short: as §1

Measured: log2 fold change

HSD17B4 (UniProt P51659)
inactive: [1] 0.079 | volasertib 0.068 | [2] -0.002 | epoxomicin -0.018 | [3] 0.005 | [4] -0.015 | [5] 0.018 | rosiglitazone -0.013 | [6] -0.043 | [7] 0.069 | saracatinib 0.004 | sotrastaurin 0.016 | alvocidib -0.047 | Tubastatin A -0.037 | [8] 0.059 | defactinib -0.002 | rucaparib -0.01 | [9] -0.02 | encorafenib -0.016 | [10] -0.002

IARS2 (UniProt Q9NSE4)
inactive: [1] 0.006 | volasertib 0.022 | [2] -0.003 | epoxomicin -0.02 | [3] 0.005 | [4] -0.015 | [5] -0.012 | rosiglitazone 0.008 | [6] -0.043 | [7] 0.051 | saracatinib 0.045 | sotrastaurin 0.022 | alvocidib -0.004 | Tubastatin A -0.026 | [8] 0.005 | defactinib -0.02 | rucaparib -0.014 | [9] -0.035 | encorafenib -0.02 | [10] 0.001

HUS1 (UniProt O60921)
inactive: [1] -0.046 | volasertib -0.075 | [2] -0.042 | epoxomicin 0.028 | [3] 0.005 | [4] -0.028 | [5] 0.004 | rosiglitazone 0.018 | [6] -0.086 | [7] -0.019 | saracatinib -0.005 | sotrastaurin 0.01 | alvocidib -0.032 | Tubastatin A -0.1 | [8] -0.029 | defactinib -0.044 | rucaparib 0 | [9] -0.011 | encorafenib 0.014 | [10] -0.044

HIBCH (UniProt Q6NVY1)
inactive: [1] 0.081 | volasertib 0.053 | [2] 0.019 | epoxomicin 0.012 | [3] 0.07 | [4] -0.08 | [5] 0.01 | rosiglitazone 0.045 | [6] -0.089 | [7] -0.099 | saracatinib -0.025 | sotrastaurin -0.009 | alvocidib -0.093 | Tubastatin A 0.041 | [8] 0.036 | defactinib -0.034 | rucaparib -0.037 | [9] 0.042 | encorafenib -0.015 | [10] -0.029

HSPA5 (UniProt P11021)
inactive: [1] -0.038 | volasertib 0.078 | [2] -0.069 | epoxomicin -0.002 | [3] 0.025 | [4] 0.038 | [5] -0.024 | rosiglitazone 0.004 | [6] -0.015 | [7] 0.051 | saracatinib 0.025 | sotrastaurin 0.024 | alvocidib -0.014 | Tubastatin A -0.037 | [8] 0.013 | defactinib 0.003 | rucaparib -0.07 | [9] -0.012 | encorafenib 0.005 | [10] 0.038

HTATSF1 (UniProt O43719)
inactive: [1] -0.194 | volasertib -0.292 | [2] 0.084 | epoxomicin -0.037 | [3] -0.065 | [4] -0.013 | [5] 0.092 | rosiglitazone 0.038 | [6] -0.006 | [7] -0.294 | saracatinib -0.052 | sotrastaurin -0.172 | alvocidib -0.239 | Tubastatin A 0.112 | [8] 0.065 | defactinib -0.306 | rucaparib -0.126 | [9] -0.005 | encorafenib 0.037 | [10] 0

IARS (UniProt P41252)
inactive: [1] 0.106 | volasertib 0.025 | [2] 0.059 | epoxomicin -0.256 | [3] -0.056 | [4] 0.156 | [5] -0.007 | rosiglitazone -0.033 | [6] 0.334 | [7] 0.022 | saracatinib -0.143 | sotrastaurin -0.055 | alvocidib 0.237 | Tubastatin A 0.04 | [8] -0.003 | defactinib 0.242 | rucaparib 0.439 | [9] 0.125 | encorafenib 0.213 | [10] 0.027

ICAM2 (UniProt P13598)
inactive: [1] 0.027 | volasertib 0.045 | [2] 0.03 | epoxomicin 0.02 | [3] 0.051 | [4] -0.076 | [5] 0.131 | rosiglitazone -0.014 | [6] -0.181 | [7] 0.08 | saracatinib 0.076 | sotrastaurin 0.01 | alvocidib -0.085 | Tubastatin A 0.053 | [8] -0.015 | defactinib -0.04 | rucaparib 0.007 | [9] 0.016 | encorafenib -0.045 | [10] -0.023

Copied from the listing (three entries):
HTATSF1 (UniProt O43719)
inactive: [1] -0.194 | volasertib -0.292 | [2] 0.084 | epoxomicin -0.037 | [3] -0.065 | [4] -0.013 | [5] 0.092 | rosiglitazone 0.038 | [6] -0.006 | [7] -0.294 | saracatinib -0.052 | sotrastaurin -0.172 | alvocidib -0.239 | Tubastatin A 0.112 | [8] 0.065 | defactinib -0.306 | rucaparib -0.126 | [9] -0.005 | encorafenib 0.037 | [10] 0

IARS (UniProt P41252)
inactive: [1] 0.106 | volasertib 0.025 | [2] 0.059 | epoxomicin -0.256 | [3] -0.056 | [4] 0.156 | [5] -0.007 | rosiglitazone -0.033 | [6] 0.334 | [7] 0.022 | saracatinib -0.143 | sotrastaurin -0.055 | alvocidib 0.237 | Tubastatin A 0.04 | [8] -0.003 | defactinib 0.242 | rucaparib 0.439 | [9] 0.125 | encorafenib 0.213 | [10] 0.027

ICAM2 (UniProt P13598)
inactive: [1] 0.027 | volasertib 0.045 | [2] 0.03 | epoxomicin 0.02 | [3] 0.051 | [4] -0.076 | [5] 0.131 | rosiglitazone -0.014 | [6] -0.181 | [7] 0.08 | saracatinib 0.076 | sotrastaurin 0.01 | alvocidib -0.085 | Tubastatin A 0.053 | [8] -0.015 | defactinib -0.04 | rucaparib 0.007 | [9] 0.016 | encorafenib -0.045 | [10] -0.023

Additional entries follow:

HMGA1 (UniProt P17096)
inactive: [1] 0.093 | volasertib 0.208 | [2] -0.032 | epoxomicin -0.073 | [3] 0.059 | [4] 0.072 | [5] -0.066 | rosiglitazone -0.027 | [6] 0.114 | [7] 0.091 | saracatinib -0.058 | sotrastaurin 0.065 | alvocidib 0.178 | Tubastatin A 0.003 | [8] -0.101 | defactinib 0.109 | rucaparib 0.136 | [9] 0.061 | encorafenib 0.032 | [10] 0.027

HMMR isoform 3 (UniProt O75330)
inactive: [1] -0.014 | volasertib -0.211 | [2] 0.043 | epoxomicin 0.041 | [3] -0.054 | [4] -0.006 | [5] 0.021 | rosiglitazone 0.058 | [6] 0.072 | [7] -0.075 | saracatinib -0.088 | sotrastaurin -0.044 | alvocidib -0.039 | Tubastatin A 0.059 | [8] 0.004 | defactinib -0.02 | rucaparib 0.163 | [9] 0.076 | encorafenib 0.124 | [10] -0.012

HS2ST1 (UniProt Q7LGA3)
inactive: [1] 0.04 | volasertib 0.006 | [2] -0.006 | epoxomicin -0.097 | [3] 0.027 | [4] -0.049 | [5] -0.054 | rosiglitazone -0.027 | [6] 0.032 | [7] -0.006 | saracatinib 0.016 | sotrastaurin 0.024 | alvocidib 0.067 | Tubastatin A -0.021 | [8] -0.037 | defactinib 0.104 | rucaparib 0.127 | [9] -0.092 | encorafenib 0.011 | [10] 0.021

HINT1 (UniProt P49773)
inactive: [1] 0.014 | volasertib 0.161 | [2] -0.027 | epoxomicin 0.146 | [3] 0.016 | [4] -0.014 | [5] 0.028 | rosiglitazone -0.024 | [6] -0.032 | [7] 0.09 | saracatinib -0.053 | sotrastaurin -0.048 | alvocidib -0.025 | Tubastatin A -0.013 | [8] 0.046 | defactinib -0.008 | rucaparib 0.006 | [9] -0.085 | encorafenib -0.084 | [10] 0.101

HSD17B10 (UniProt Q99714)
inactive: [1] 0.041 | volasertib 0.056 | [2] 0.01 | epoxomicin 0.051 | [3] -0.007 | [4] -0.087 | [5] 0.061 | rosiglitazone 0.026 | [6] -0.126 | [7] 0.094 | saracatinib 0.081 | sotrastaurin -0.099 | alvocidib -0.094 | Tubastatin A -0.008 | [8] 0.032 | defactinib -0.037 | rucaparib -0.063 | [9] -0.011 | encorafenib 0.043 | [10] -0.029

HSP90AA1 isoform 2 (UniProt P07900)
inactive: [1] -0.103 | volasertib -0.044 | [2] 0.038 | epoxomicin 0.039 | [3] 0.01 | [4] -0.051 | [5] 0.007 | rosiglitazone 0.037 | [6] -0.071 | [7] 0.004 | saracatinib 0.008 | sotrastaurin 0.001 | alvocidib -0.064 | Tubastatin A -0.003 | [8] 0.003 | defactinib -0.031 | rucaparib -0.055 | [9] -0.005 | encorafenib 0.024 | [10] 0.001

HSD17B11 (UniProt Q8NBQ5)
inactive: [1] 0.043 | volasertib -0.042 | [2] 0.004 | epoxomicin 0.007 | [3] -0.014 | [4] -0.047 | [5] 0.007 | rosiglitazone -0.003 | [6] -0.073 | [7] 0.048 | saracatinib 0.02 | sotrastaurin 0.022 | alvocidib -0.051 | Tubastatin A -0.002 | [8] 0.003 | defactinib 0.005 | rucaparib -0.073 | [9] 0.003 | encorafenib 0.01 | [10] -0.013

HNRNPA3 (UniProt P51991)
inactive: [1] 0.22 | volasertib 0.094 | [2] 0.02 | epoxomicin -0.38 | [3] -0.066 | [4] 0.113 | [5] -0.127 | rosiglitazone -0.204 | [6] 0.232 | [7] 0.346 | saracatinib 0.095 | sotrastaurin -0.028 | alvocidib 0.288 | Tubastatin A 0.023 | [8] 0.104 | defactinib 0.48 | rucaparib 0.361 | [9] 0.062 | encorafenib 0.095 | [10] -0.011
